Experimental data published in article PMC11993459.
These are yes or no findings as the source states them, for the method shown. In cells and extracts the contact can be indirect. Some binding calls cover weakened binding; strength is not graded here.

Amino acid sequences for entries named in this document (tags omitted).
UniProt Q96AC1: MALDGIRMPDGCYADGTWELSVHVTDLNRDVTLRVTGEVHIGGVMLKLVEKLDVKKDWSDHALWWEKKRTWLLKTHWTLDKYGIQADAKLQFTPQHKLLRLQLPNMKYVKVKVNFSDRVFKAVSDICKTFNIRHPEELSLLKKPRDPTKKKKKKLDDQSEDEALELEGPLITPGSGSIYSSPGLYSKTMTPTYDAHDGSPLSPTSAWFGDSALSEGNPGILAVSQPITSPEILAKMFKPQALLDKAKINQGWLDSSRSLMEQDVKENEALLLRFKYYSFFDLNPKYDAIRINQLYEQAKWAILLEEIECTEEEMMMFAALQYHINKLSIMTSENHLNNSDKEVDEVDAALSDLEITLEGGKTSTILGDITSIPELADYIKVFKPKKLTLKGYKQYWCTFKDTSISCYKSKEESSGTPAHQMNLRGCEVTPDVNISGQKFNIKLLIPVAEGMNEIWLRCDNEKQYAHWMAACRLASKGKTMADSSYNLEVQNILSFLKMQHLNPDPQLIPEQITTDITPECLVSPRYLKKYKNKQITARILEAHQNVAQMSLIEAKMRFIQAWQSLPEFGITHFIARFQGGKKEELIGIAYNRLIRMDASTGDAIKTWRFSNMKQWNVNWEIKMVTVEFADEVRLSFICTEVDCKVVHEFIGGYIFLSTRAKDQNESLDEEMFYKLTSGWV
UniProt P48431: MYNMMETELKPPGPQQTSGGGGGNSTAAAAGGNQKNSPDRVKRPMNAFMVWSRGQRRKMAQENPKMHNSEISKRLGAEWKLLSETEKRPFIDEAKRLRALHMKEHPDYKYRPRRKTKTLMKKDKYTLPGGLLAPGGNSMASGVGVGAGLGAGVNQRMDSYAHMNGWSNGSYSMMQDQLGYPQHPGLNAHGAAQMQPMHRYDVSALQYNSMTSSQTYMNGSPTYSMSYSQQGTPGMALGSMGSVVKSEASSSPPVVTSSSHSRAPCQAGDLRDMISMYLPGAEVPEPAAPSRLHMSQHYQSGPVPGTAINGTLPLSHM

Molecular target: Fermitin family homolog 2 (FERMT2) (human (endogenous in HGC-27)) (UniProt Q96AC1)
Experiment: co-IP; whole-cell protein of HGC-27 cells extracted with RIPA buffer, incubated overnight at 4 °C with Protein A + G magnetic beads and the corresponding antibody; co-precipitated proteins analysed by Western blotting

binding: binds
Substance: SRY (sex determining region Y)-box 2 (SOX2) (from UniProt P48431 1-317)
